Assay results taken from publication PMC4458895.
Results are given in words; binding and its absence hold for the method and conditions named.

Amino acid sequences for entries named in this document (tags omitted). Residues count along the entry.
UniProt Q2G2B2, residues 420-629: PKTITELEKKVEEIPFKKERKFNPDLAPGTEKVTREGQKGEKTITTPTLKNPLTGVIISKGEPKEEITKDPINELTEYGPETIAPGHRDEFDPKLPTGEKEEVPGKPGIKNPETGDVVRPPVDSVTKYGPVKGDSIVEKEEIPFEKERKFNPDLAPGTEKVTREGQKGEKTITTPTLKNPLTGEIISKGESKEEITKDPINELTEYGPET

Molecular target: SasG G5^1-E-G5^2 (G5^1–G5^2; residue range 420–629) (S. aureus strain NCTC 8325-4) (UniProt Q2G2B2)
Test: SEC-MALS; SEC-multi-angle laser light scattering-quasi-elastic light scattering; samples in the range 1.5-2 mg ml^-1; Superdex 200 10/300 GL column, Dawn HELEOS-II detector; self-association of each construct tested; both purified

## SasG G5^1-E-G5^2 (G5^1–G5^2; residue range 420–629) (from UniProt Q2G2B2 420-629) (domain or fragment)
  binding: no binding (tested: 1.5–2 mg ml^−1)
